Assay results from paper PMC6804006, “Synthesis, Biological Activities and Docking Studies of Novel 4-(Arylaminomethyl)benzamide Derivatives as Potential Tyrosine Kinase Inhibitors” (Molecules, 2019).

Tests used:
Format in all cases: cell-based
[1] = test system: HL-60 (promyelocytic leukemia); experiment: MTT anti-proliferative assay, HL-60; conditions: Homo sapiens, HL-60, 48 h, 50% growth inhibition
Description: (§1) Each in vitro experiment was performed at least in triplicate, and the standard deviation of absorbance was less than 10% of the mean. For the in vitro assays, a stock solution (1% DMSO in the appropriate buffer with the tested compound diluted under sonication) was prepared from which several dilutions were made with the appropriate buffer.
(§2) Human cell lines were obtained from the Institute of Cytology, Russian Academy of Sciences. The cell lines studied were maintained in RPMI 1640 medium (AppliChem, Darmstadt, Germany) supplemented with 20% (HL-60, RPMI 1788) fetal calf serum (HyClone, Cramlington, UK), in DMEM (A 549) and Eagle’s MEM (AppliChem) (MCF7, HeLa) with 10% fetal calf serum (HyClone). Cells were cultivated at 37 °C in a humidified atmosphere of 5% CO2. Cellular sensitivities to clofarabine and its lipid derivatives were measured with the MTT assay. Cells were plated in triplicate in 96-well plates (10^5 cells/well for suspended cell cultures and 5 × 10^3 cells/well for monolayer cultures); on the same day (suspended cell cultures) or on the following day (monolayer cultures), compounds were added at the appropriate dilutions. […] The optical density was read on a HALO MPR-95 Microplate Reader (Dynamica Scientific Ltd., Australia) at 570 nm. The antiproliferative effects were determined as degrees of inhibition of tumor cells (%).

[2] = test system: MCF-7 (breast adenocarcinoma); experiment: MTT anti-proliferative assay, MCF-7; conditions: Homo sapiens, MCF7, 48 h, 50% growth inhibition
Description: as §1, §2

[3] = test system: OKP-GS (carcinoma of the kidney); experiment: MTT anti-proliferative assay, OKP-GS; conditions: Homo sapiens, 48 h, 50% growth inhibition
Description: as §1, §2

[4] = test system: K-562 (chronic myelogenous leukemia); experiment: MTT anti-proliferative assay, K-562; conditions: Homo sapiens, K562, 48 h, 50% growth inhibition
Description: as §1, §2

A549 (lung carcinoma) = experiment: MTT anti-proliferative assay, A-549; conditions: Homo sapiens, 48 h, 50% growth inhibition
Description: as §1, §2

HeLa (cervix carcinoma) = experiment: MTT anti-proliferative assay, HeLa; conditions: Homo sapiens, 48 h, 50% growth inhibition
Description: as §1, §2

Structure (SMILES): Cc1ccc(NC(=O)c2ccc(CN3CCN(C)CC3)cc2)cc1Nc1nccc(-c2cccnc2)n1 [Imatinib, reference compound]
- IC50 [1]: 44.5 µM
- IC50 [2]: 49 µM
- IC50 [3]: 48 µM
- IC50 [4]: 0.41 µM
- IC50 (A549 (lung carcinoma)): 54 µM
- IC50 (HeLa (cervix carcinoma)): 45.8 µM
